Assay in all cases: enzyme reaction in vitro
The subject of data set [1] is KasI restriction endonuclease (native) (Kluyvera ascorbata). The note with it: purified native protein.
Data set [2] concerns NarI restriction endonuclease. As to conditions: isoschizomer of KasI used for comparison; 37 C.
The subject of data set [3] is KasI restriction endonuclease (recombinant) (Kluyvera ascorbata). The note with it: HindIII-cut lambda DNA; 10 mM Tris pH 7.5, 10 mM Mg, 1 mM DTT; 95% of ligated fragments recut; purified recombinant protein.

For at least one entry, the source does not settle the construct or the ends of the probe.

With “GGCGCC (double strand) [T7 DNA (KasI sites)]”, the “activity on this sequence” value in data set [1] (two cleavage positions (abstract), 50 mM NaCl, 10 mM Tris pH 7.4, 10 mM MgCl2, 37 C) is “active”.

On to “GGCGCC (double strand) [PhiX174 DNA, printed PhiX172 (KasI sites)]”, for which, in data set [1] (two cleavage positions), the “activity on this sequence” value was “active”.

“GGCGCC (double strand) [M13mp18 DNA (KasI site)]”: the “activity on this sequence” value in data set [1] (one cleavage position) was “active”.

With “GGCGCC (double strand) [KasI/NarI site in pUC19]”, the “activity on this sequence” value in data set [2] is reported as “active”.

As to “GGCGCC (double strand) [KasI recognition site (lambda DNA)]”, the “activity on this sequence” value in data set [1] (activity detected in K. ascorbata supernatant, 50 mM NaCl, 10 mM Tris, 10 mM MgCl2, 37 C) is “active”; in data set [3], “active”.
